Assay results from the supplement of paper PMC10735217.
The list shows a part of the results. Single values are uncertain here, since repeats match poorly.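 In a drug-repurposing library screen, luminescence reads luciferase driven by eight TEAD-binding elements, stably integrated into human kidney-derived cells. Compounds scoring over five robust Z scores above the plate mean are called hits.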

Test system: HEK293A TEAD-LUC reporter
Assay: TEAD-luciferase reporter activity (YAP activation), robust Z score vs plate; higher = stronger YAP/TEAD activation
Details: 24 h

Compound | TEAD-luciferase reporter activity (compound concentration: 200 nM) | TEAD-luciferase reporter activity (compound concentration: 2 uM) | TEAD-luciferase reporter activity (compound concentration: 10 uM)
COCCOC[C@H](CC1(C(=O)N[C@H]2CC[C@@H](C(=O)O)CC2)CCCC1)C(=O)O | inactive: 0.409 | inactive: -1.12 | inactive: -0.964
Oc1nn(-c2ccccc2)c(O)c1-c1ccccc1 | inactive: -0.278 | inactive: -0.79 | inactive: 1.05
CCCCCCCCCCCCCC[N+](C)(C)C | inactive: -0.895 | inactive: -0.805 | inactive: -0.332
CCOc1ccc(C(=O)OCCN(CC)CC)cc1 | inactive: -1.29 | inactive: 0.186 | inactive: 1.83
CCCCCCN(Cc1ccc(CC(C)(C)C)cc1)C(Nc1cc(C(C)(C)C)c(O)c(C(C)(C)C)c1)=C1C(=O)OC(C)(C)OC1=O | inactive: -0.977 | inactive: -0.162 | inactive: 1.18
C=C1C[C@@H]2CC[C@@]34C[C@H]5O[C@H]6[C@@H](O3)[C@H]3O[C@H](CC[C@@H]3O[C@H]6[C@H]5O4)CC(=O)C[C@@H]3[C@@H](OC)[C@@H](C[C@H](O)CN)O[C@H]3C[C@H]3O[C@@H](CC[C@@H]1O2)C[C@@H](C)C3=C [Eribulin (mesylate)] | inactive: -0.2 | – | inactive: -0.382
COc1nn(-c2cccc(NC(C)=O)c2)c(=O)n(Cc2ccc(Cl)c(F)c2)c1=O | – | inactive: -0.923 | –
NCCCN1C(=O)NC2(CCCCC2)C1=O | inactive: -2.54 | inactive: 2.33 | inactive: -1.96
O=C([O-])CN(CCN1CC(=O)[O][Mn][O]C(=O)C1)CC(=O)[O-] [EDETATE manganese DISODIUM] | inactive: -1.84 | inactive: -0.663 | inactive: -0.408
CC(=O)OCCOCn1cnc2c(O)nc(N)nc21 | inactive: 0.571 | inactive: -0.849 | inactive: 1.88
Cc1c(OCC(F)(F)F)ccnc1CS(=O)c1nc2ccccc2[nH]1 (stereo not drawn) [Lansoprazole] | inactive: 0.626 | – | inactive: 3.75
Cc1c(OCC(F)(F)F)ccnc1CS(=O)c1nc2ccccc2[nH]1 (stereo not drawn) [dexlansoprazole] | – | inactive: 1.26 | –
CCC(=O)O[C@]1(C(=O)CO)CC[C@H]2[C@@H]3CCC4=CC(=O)CC[C@]4(C)[C@H]3CC[C@@]21C [Cortexolone 17alpha-propionate] | inactive: 4.99 | inactive: -0.602 | inactive: 1.42
CCN(CC)CCOC(=O)c1cccc(-c2ccccc2)c1O | inactive: -1.95 | inactive: -0.0114 | inactive: -0.451
COc1nc(N)c2ncn([C@@H]3O[C@H](CO)[C@@H](O)[C@H]3O)c2n1 [Spongosine] | inactive: 0.278 | inactive: 0.115 | inactive: 2.89
CCN(CC)CCOC1(c2ccccc2)CCN(CCNc2ccccc2)CC1 | inactive: 0.709 | inactive: -0.00155 | inactive: -0.0738
CC(=O)c1cc(C(=O)NC2CC(C)(C)Cc3c2cnn3-c2cccc(F)c2)[nH]n1 (stereo not drawn) | inactive: 3.3 | inactive: -1.67 | inactive: 0.311
CCN(CC(=O)NC(CC(=O)O)C(=O)NC(CC1CCCCC1)C(=O)O)C(=O)CCCC1CCNCC1 (stereo not drawn) | inactive: -0.505 | inactive: -1.2 | inactive: -0.31
CC(=O)Oc1cccc(C(=O)O)c1OC(C)=O [Dipyrocetyl] | inactive: -0.32 | inactive: -0.626 | inactive: -0.295

Compound | TEAD-luciferase reporter activity (compound concentration: 200 nM) | TEAD-luciferase reporter activity (compound concentration: 2 uM) | TEAD-luciferase reporter activity (compound concentration: 10 uM)
CC(C)c1c(C(=O)Nc2ccccc2)c(-c2ccccc2)c(-c2ccc(F)cc2)n1CC[C@@H](O)C[C@@H](O)CC(=O)OCCCCO[N+](=O)[O-] | inactive: 0.979 | inactive: -0.555 | inactive: -0.184
C[C@@H](c1ccccn1)c1c(CCN(C)C)sc2ccccc12 | inactive: -1.41 | inactive: 2.58 | active: 8.32
CCn1cc(C(=O)O)c(=O)c2cc(F)c(N3CCNCC3)cc21 | inactive: 0.237 | – | inactive: 2.23
CCn1cc(C(=O)O)c(=O)c2cc(F)c(N3CCNCC3)cc21 [Norfloxacin] | – | inactive: -1.22 | –
O=C(CCCO)NCCO [Etoxybamide] | inactive: -0.379 | inactive: -0.328 | inactive: 0.252
Cc1nc(-c2ccc(C(F)(F)F)cc2)sc1COc1ccc(C(N)=O)c(Cl)c1 | inactive: -1.05 | inactive: -0.281 | inactive: -1.08
NC1CCN(c2ccc(-c3ccccc3Cl)nn2)CC1 | inactive: -0.305 | inactive: 1.62 | inactive: -0.508
N#CCC(=O)N1CCC(c2nc(-c3cccs3)no2)CC1 | inactive: 0.155 | inactive: 0.225 | inactive: 0.902
OC(Cn1cncn1)(Cn1cncn1)c1ccc(F)cc1F [fluconazole] | – | inactive: -0.99 | –
OC(Cn1cncn1)(Cn1cncn1)c1ccc(F)cc1F | inactive: -3.54 | – | inactive: 0.167
Cc1cc(CCCCCCCOc2ccc(C3=NCCO3)cc2)on1 | inactive: 1.77 | inactive: 0.201 | inactive: -0.147
Cc1ccc(-c2cccc(CN3CCCC3C(=O)NCc3ccc(C(F)(F)F)cc3)c2)cc1Cl (stereo not drawn) | inactive: 3.91 | – | inactive: 1.88
CC(C)n1c(=O)n(C(=O)NC2C[C@H]3CC[C@@H](C2)N3C)c2ccccc21 (stereo partly drawn) | inactive: 2.5 | inactive: -0.425 | inactive: -2.26
Cc1cc(N2CCCCC2)nn2cnnc12 [zindotrine] | inactive: 0.0263 | inactive: -1.44 | inactive: -1.47
Cc1nc(NC(=N)NS(=O)(=O)c2ccc(N)cc2)oc1C | inactive: -0.616 | inactive: -0.42 | inactive: 0.341
C[C@]12CCC(=O)C=C1C=C[C@@H]1[C@@H]2CC[C@@]2(C)[C@H]1CC[C@@]21CCC(=O)O1 [Canre] | inactive: 0.218 | inactive: -0.155 | inactive: -0.401
O=C(O)C[C@@H]1CC[C@H](NC(=O)Cc2cccs2)B(O)O1 | inactive: -0.859 | inactive: -1.93 | inactive: 0.277
C1=C/COCc2cc(ccc2OCCN2CCCC2)Nc2nccc(n2)-c2cccc(c2)COC/1 [Pacritinib] | inactive: -1.27 | inactive: -2.68 | inactive: -1.69

Single records, from the list above. Order of values: TEAD-luciferase reporter activity (compound concentration: 200 nM)	TEAD-luciferase reporter activity (compound concentration: 2 uM)	TEAD-luciferase reporter activity (compound concentration: 10 uM)
CCN(CC(=O)NC(CC(=O)O)C(=O)NC(CC1CCCCC1)C(=O)O)C(=O)CCCC1CCNCC1 (stereo not drawn) is listed with inactive: -0.505	inactive: -1.2	inactive: -0.31
Cc1c(OCC(F)(F)F)ccnc1CS(=O)c1nc2ccccc2[nH]1 (stereo not drawn) [dexlansoprazole] is listed with –	inactive: 1.26	–
